Results published in article doi:10.1101/2021.05.10.443506.
These are yes or no findings as the source states them, for the method shown. In cells and extracts the contact can be indirect. Some results given as binding are weak or reduced against the parent protein; the word gives no strength.

Sequences of proteins named here, by UniProt entry; tags and fusion partners are left off.
UniProt P12270: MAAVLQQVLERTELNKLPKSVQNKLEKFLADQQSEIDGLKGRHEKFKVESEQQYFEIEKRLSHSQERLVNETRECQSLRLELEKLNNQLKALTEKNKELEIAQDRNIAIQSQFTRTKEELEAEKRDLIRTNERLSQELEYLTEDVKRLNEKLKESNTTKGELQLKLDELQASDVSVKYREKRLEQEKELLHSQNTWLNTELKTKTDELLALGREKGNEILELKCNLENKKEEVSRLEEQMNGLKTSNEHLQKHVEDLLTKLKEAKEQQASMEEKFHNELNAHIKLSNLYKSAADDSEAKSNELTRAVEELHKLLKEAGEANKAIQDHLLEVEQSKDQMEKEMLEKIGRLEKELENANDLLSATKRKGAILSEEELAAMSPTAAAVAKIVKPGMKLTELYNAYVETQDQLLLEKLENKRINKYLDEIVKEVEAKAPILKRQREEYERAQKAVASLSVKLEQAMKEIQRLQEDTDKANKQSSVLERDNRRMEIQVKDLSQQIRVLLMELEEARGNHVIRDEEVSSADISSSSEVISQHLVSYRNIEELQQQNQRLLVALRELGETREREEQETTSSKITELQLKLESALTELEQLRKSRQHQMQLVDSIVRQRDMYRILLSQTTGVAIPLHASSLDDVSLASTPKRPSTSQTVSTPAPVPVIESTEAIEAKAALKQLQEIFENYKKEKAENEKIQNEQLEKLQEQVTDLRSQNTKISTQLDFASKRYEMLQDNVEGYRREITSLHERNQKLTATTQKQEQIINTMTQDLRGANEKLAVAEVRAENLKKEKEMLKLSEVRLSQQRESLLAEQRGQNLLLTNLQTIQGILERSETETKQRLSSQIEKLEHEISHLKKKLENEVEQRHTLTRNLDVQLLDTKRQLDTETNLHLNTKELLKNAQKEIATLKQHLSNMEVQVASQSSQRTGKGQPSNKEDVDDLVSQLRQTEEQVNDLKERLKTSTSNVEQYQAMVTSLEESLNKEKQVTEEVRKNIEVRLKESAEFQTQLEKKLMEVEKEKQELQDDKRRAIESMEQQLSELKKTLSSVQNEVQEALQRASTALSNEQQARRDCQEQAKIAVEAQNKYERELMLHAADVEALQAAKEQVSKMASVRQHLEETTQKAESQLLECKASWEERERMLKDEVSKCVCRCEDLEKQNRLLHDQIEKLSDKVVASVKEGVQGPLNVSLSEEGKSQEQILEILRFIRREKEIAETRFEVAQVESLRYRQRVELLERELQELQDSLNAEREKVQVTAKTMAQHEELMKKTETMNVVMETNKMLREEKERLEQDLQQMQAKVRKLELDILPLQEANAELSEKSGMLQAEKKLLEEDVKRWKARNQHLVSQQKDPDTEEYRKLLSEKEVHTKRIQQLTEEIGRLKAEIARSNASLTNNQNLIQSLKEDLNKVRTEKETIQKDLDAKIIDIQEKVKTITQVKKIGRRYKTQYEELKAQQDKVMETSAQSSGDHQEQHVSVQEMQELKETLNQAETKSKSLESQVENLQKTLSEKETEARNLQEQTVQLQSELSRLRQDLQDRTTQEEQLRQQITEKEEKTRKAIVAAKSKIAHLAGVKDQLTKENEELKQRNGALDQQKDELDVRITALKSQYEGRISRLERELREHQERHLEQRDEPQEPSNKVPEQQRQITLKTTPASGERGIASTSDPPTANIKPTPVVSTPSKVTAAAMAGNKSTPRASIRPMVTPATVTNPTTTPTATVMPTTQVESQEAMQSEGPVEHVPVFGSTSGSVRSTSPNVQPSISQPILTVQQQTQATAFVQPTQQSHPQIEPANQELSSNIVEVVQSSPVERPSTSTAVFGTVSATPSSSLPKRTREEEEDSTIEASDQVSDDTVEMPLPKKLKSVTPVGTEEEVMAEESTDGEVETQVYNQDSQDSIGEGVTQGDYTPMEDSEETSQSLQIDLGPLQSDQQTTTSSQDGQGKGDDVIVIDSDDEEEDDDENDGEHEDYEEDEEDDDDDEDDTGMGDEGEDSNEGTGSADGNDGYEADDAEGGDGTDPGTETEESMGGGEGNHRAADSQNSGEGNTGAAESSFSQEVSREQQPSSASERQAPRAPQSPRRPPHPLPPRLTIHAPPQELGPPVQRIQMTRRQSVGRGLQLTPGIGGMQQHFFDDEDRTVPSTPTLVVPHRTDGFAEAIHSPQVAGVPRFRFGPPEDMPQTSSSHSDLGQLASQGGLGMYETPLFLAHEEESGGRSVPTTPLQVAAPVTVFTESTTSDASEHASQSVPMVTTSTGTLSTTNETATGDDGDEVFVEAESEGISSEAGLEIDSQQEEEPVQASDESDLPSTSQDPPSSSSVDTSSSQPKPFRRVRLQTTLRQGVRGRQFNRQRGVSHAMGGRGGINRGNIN

Molecular target: nucleoporin TPR (human (endogenous in U2OS)) (UniProt P12270)
Assay: proximity ligation

B1: CTCF (protein, UniProt P49711 1-727)
chain: MEGDAVEAIVEESETFIKGKERKTYQRRREGGQEEDACHLPQNQTDGGEVVQDVNSSVQMVMMEQLDPTLLQMKTEVMEGTVAPEAEAAVDDTQIITLQVVNMEEQPINIGELQLVQVPVPVTVPVATTSVEELQGAYENEVSKEGLAESEPMICHTLPLPEGFQVVKVGANGEVETLEQGELPPQEDPSWQKDPDYQPPAKKTKKTKKSKLRYTEEGKDVDVSVYDFEEEQQEGLLSEVNAEKVVGNMKPPKPTKIKKKGVKKTFQCELCSYTCPRRSNLDRHMKSHTDERPHKCHLCGRAFRTVTLLRNHLNTHTGTRPHKCPDCDMAFVTSGELVRHRRYKHTHEKPFKCSMCDYASVEVSKLKRHIRSHTGERPFQCSLCSYASRDTYKLKRHMRTHSGEKPYECYICHARFTQSGTMKMHILQKHTENVAKFHCPHCDTVIARKSDLGVHLRKQHSYIEQGKKCRYCDAVFHERYALIQHQKSHKNEKRFKCDQCDYACRQERHMIMHKRTHTGEKPYACSHCDKTFRQKQLLDMHFKRYHDPNFVPAAFVCSKCGKTFTRRNTMARHADNCAGPDGVEGENGGETKKSKRGRKRKMRSKKEDSSDSENAEPDLDDNEDEEEPAVEIEPEPEPQPVTPAPPPAKKRRGRPPGRTNQPKQNQPTAIIQVEDQNTGAIENIIVEVKKEPDAEPAEGEEEEAQPAATDAPNGDLTPEMILSMMDR
In the case of B1, the binding is reported as “binds”.
